# Reference: patent publication US20140349871A1
# Amino acid sequences for entries named in this document (tags omitted). A change or cut given only in a name is not applied to a line headed by its entry.
# UniProt P15924: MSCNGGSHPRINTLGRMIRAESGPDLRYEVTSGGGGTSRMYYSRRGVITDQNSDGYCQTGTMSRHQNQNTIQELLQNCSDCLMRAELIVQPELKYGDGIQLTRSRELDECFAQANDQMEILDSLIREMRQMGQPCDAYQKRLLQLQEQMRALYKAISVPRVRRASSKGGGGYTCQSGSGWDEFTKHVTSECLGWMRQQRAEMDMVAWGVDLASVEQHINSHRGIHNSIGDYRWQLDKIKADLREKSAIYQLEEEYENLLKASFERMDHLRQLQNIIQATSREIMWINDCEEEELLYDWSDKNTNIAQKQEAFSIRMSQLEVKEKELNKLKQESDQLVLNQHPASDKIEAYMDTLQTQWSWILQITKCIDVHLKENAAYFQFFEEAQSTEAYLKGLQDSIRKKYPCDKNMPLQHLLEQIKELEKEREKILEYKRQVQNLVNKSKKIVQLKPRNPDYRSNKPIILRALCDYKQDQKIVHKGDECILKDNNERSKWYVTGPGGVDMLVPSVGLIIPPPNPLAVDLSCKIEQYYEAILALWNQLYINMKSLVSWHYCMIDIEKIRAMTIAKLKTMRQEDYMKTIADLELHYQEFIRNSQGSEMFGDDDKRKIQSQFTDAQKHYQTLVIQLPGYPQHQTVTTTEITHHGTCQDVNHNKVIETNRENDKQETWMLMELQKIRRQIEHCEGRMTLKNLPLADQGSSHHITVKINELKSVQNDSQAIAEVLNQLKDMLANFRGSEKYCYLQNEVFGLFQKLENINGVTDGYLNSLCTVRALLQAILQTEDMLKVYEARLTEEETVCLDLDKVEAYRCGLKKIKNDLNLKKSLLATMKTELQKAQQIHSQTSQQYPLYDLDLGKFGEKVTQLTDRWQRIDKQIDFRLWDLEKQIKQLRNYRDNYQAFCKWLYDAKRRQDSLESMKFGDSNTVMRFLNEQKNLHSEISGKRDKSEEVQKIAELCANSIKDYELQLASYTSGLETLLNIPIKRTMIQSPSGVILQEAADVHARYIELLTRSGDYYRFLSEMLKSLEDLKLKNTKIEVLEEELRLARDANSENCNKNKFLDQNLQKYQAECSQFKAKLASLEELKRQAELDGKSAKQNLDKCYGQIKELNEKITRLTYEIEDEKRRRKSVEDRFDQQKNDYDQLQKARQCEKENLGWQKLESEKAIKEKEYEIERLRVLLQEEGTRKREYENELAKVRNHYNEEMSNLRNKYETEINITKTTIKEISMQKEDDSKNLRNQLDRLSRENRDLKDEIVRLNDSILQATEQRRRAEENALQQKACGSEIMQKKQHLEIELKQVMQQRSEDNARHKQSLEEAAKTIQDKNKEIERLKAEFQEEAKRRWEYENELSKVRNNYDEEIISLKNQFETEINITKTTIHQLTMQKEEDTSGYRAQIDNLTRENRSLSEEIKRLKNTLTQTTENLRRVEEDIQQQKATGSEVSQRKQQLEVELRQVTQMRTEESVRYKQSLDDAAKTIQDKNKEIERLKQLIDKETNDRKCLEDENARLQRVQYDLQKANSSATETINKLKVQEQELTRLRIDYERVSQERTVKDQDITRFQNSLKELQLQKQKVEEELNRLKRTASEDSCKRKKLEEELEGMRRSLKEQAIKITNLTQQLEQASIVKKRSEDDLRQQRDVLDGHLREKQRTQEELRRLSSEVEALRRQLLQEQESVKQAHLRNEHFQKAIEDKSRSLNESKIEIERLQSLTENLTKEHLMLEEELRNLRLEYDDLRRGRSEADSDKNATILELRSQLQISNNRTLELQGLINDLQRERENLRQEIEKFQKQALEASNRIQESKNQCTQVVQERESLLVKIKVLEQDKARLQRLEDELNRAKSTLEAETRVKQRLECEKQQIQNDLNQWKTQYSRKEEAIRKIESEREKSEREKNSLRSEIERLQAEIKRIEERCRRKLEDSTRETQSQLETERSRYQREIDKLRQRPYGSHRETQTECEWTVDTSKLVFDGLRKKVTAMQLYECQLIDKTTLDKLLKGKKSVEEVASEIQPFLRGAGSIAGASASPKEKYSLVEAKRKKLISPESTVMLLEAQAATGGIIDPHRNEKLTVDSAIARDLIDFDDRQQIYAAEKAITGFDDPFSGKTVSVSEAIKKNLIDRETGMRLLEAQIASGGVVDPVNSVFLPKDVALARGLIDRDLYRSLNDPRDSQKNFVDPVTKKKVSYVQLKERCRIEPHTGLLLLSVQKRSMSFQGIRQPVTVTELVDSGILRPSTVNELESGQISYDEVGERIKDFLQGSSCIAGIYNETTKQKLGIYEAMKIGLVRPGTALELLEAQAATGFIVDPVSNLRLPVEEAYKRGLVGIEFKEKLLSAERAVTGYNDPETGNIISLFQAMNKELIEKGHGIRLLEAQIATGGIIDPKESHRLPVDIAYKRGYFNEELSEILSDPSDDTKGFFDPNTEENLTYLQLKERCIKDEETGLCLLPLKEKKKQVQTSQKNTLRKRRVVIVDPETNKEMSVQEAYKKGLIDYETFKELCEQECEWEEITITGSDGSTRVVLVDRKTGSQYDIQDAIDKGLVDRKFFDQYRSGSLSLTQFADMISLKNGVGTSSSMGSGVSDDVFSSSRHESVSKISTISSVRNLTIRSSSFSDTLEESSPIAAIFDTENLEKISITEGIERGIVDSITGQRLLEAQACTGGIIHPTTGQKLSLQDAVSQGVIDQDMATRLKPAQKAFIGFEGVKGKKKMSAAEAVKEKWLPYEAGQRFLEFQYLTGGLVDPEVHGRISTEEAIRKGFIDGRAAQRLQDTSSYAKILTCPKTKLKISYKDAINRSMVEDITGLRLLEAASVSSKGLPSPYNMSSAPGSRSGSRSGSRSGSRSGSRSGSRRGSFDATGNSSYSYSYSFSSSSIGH
# UniProt Q6RYW5: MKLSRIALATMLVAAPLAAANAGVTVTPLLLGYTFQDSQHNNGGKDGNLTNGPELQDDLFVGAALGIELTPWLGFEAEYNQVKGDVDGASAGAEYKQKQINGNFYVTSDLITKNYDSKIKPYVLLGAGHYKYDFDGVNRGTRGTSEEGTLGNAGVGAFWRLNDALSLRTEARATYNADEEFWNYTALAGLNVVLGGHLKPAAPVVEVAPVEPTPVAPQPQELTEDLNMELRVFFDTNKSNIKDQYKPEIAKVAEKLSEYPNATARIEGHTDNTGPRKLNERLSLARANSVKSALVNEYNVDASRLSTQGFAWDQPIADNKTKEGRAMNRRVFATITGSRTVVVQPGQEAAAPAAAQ
# These are yes or no findings as the source states them, for the method shown. Some binding calls cover weakened binding; strength is not graded here.
# Target: desmoplakin (human) (UniProt P15924)
# Experiment: PIR cross-linking and ReACT of A. baumannii cells incubated with human bronchial epithelial cells
substance,measurement,value
OmpA (from UniProt Q6RYW5 20-356),binding,binds
